The other results are listed elsewhere or left out.
Columns and labels:
Test in all cases: glycan array binding signal (z-score within array); higher = stronger binding
Conditions in all cases: glycan notation: IUPAC condensed, linker removed
[1] = target: Man(a1-3)[Man(a1-6)]Man(a1-6)[Man(a1-3)]Man(b1-4)GlcNAc(b1-4)GlcNAc
Outline: (§1)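 Columns mapping to the same glycan were averaged after glycan names were converted to IUPAC-condensed notation. The data come from 3228 arrays in the Consortium for Functional Glycomics database, limited to those with an available protein sequence. Binding is reported as a within-array Z-score averaged across arrays of one protein sequence and across linkers.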

[2] = target: Man(a1-3)[Man(a1-6)]Man(b1-4)GlcNAc(b1-4)GlcNAc
Outline: as §1

Man(b1-4)GlcNAc = target: Man(b1-4)GlcNAc
Outline: as §1

Neu5Ac(a2-3)Gal = target: Neu5Ac(a2-3)Gal
Outline: as §1

[3] = target: Neu5Ac(a2-3)Gal(b1-3)GalNAc
Outline: as §1

[4] = target: Neu5Ac(a2-3)Gal(b1-3)GalNAc(b1-3)Gal(a1-4)Gal(b1-4)Glc
Outline: as §1

[5] = target: Neu5Ac(a2-3)Gal(b1-3)GalNAc(b1-4)[Neu5Ac(a2-3)]Gal(b1-4)Glc
Outline: as §1

[6] = target: Neu5Ac(a2-3)Gal(b1-3)GalNAc6S
Outline: as §1

[7] = target: Neu5Ac(a2-3)Gal(b1-3)GlcNAc
Outline: as §1

[8] = target: Neu5Ac(a2-3)Gal(b1-3)GlcNAc(b1-3)Gal(b1-3)GlcNAc
Outline: as §1

[9] = target: Neu5Ac(a2-3)Gal(b1-3)GlcNAc(b1-3)Gal(b1-4)GlcNAc
Outline: as §1

[10] = target: Neu5Ac(a2-3)Gal(b1-3)GlcNAc6S
Outline: as §1

[11] = target: Neu5Ac(a2-3)Gal(b1-3)[Fuc(a1-4)]GlcNAc
Outline: as §1

[12] = target: Neu5Ac(a2-3)Gal(b1-3)[Fuc(a1-4)]GlcNAc(b1-3)Gal(b1-4)[Fuc(a1-3)]GlcNAc
Outline: as §1

[13] = target: Neu5Ac(a2-3)Gal(b1-3)[Neu5Ac(a2-3)Gal(b1-4)]GlcNAc
Outline: as §1

[14] = target: Neu5Ac(a2-3)Gal(b1-3)[Neu5Ac(a2-6)]GalNAc
Outline: as §1

Neu5Ac(a2-3)Gal(b1-4)Glc = target: Neu5Ac(a2-3)Gal(b1-4)Glc
Outline: as §1

[15] = target: Neu5Ac(a2-3)Gal(b1-4)GlcNAc
Outline: as §1

[16] = target: Neu5Ac(a2-3)Gal(b1-4)GlcNAc(b1-3)Gal(b1-3)GlcNAc
Outline: as §1

[17] = target: Neu5Ac(a2-3)Gal(b1-4)GlcNAc(b1-3)Gal(b1-4)GlcNAc
Outline: as §1

[18] = target: Neu5Ac(a2-3)Gal(b1-4)GlcNAc(b1-3)Gal(b1-4)GlcNAc(b1-3)Gal(b1-4)GlcNAc
Outline: as §1

[19] = target: Neu5Ac(a2-3)Gal(b1-4)GlcNAc(b1-3)Gal(b1-4)[Fuc(a1-3)]GlcNAc
Outline: as §1

[20] = target: Neu5Ac(a2-3)Gal(b1-4)GlcNAc(b1-6)[Gal(b1-3)]GalNAc
Outline: as §1

[21] = target: Neu5Ac(a2-3)Gal(b1-4)GlcNAc6S
Outline: as §1

[22] = target: Neu5Ac(a2-3)Gal(b1-4)[Fuc(a1-3)]GlcNAc
Outline: as §1

[23] = target: Neu5Ac(a2-3)Gal(b1-4)[Fuc(a1-3)]GlcNAc(b1-3)Gal
Outline: as §1

[24] = target: Neu5Ac(a2-3)Gal(b1-4)[Fuc(a1-3)]GlcNAc(b1-3)Gal(b1-4)GlcNAc
Outline: as §1

[25] = target: Neu5Ac(a2-3)Gal(b1-4)[Fuc(a1-3)]GlcNAc(b1-3)Gal(b1-4)[Fuc(a1-3)]GlcNAc(b1-3)Gal(b1-4)[Fuc(a1-3)]GlcNAc
Outline: as §1

[26] = target: Neu5Ac(a2-3)Gal(b1-4)[Fuc(a1-3)]GlcNAc6S
Outline: as §1

[27] = target: Neu5Ac(a2-3)Gal6S(b1-4)GlcNAc
Outline: as §1

[28] = target: Neu5Ac(a2-3)Gal6S(b1-4)[Fuc(a1-3)]GlcNAc
Outline: as §1

Neu5Ac(a2-3)GalNAc = target: Neu5Ac(a2-3)GalNAc
Outline: as §1

[29] = target: Neu5Ac(a2-3)GalNAc(b1-4)GlcNAc
Outline: as §1

[30] = target: Neu5Ac(a2-3)[GalNAc(b1-4)]Gal(b1-4)Glc
Outline: as §1

[31] = target: Neu5Ac(a2-3)[GalNAc(b1-4)]Gal(b1-4)GlcNAc
Outline: as §1

[32] = target: Neu5Ac(a2-3)[Neu5Ac(a2-6)]GalNAc
Outline: as §1

[33] = target: Neu5Ac(a2-6)Gal(b1-4)GlcNAc
Outline: as §1

[34] = target: Neu5Ac(a2-6)Gal(b1-4)GlcNAc(b1-2)Man(a1-3)[Neu5Ac(a2-6)Gal(b1-4)GlcNAc(b1-2)Man(a1-6)]Man(b1-4)GlcNAc(b1-4)GlcNAc
Outline: as §1

[35] = target: Neu5Ac(a2-6)Gal(b1-4)GlcNAc(b1-3)Gal(b1-4)GlcNAc
Outline: as §1

[36] = target: Neu5Ac(a2-6)Gal(b1-4)GlcNAc(b1-3)Gal(b1-4)[Fuc(a1-3)]GlcNAc(b1-3)Gal(b1-4)[Fuc(a1-3)]GlcNAc
Outline: as §1

[37] = target: Neu5Ac(a2-6)Gal(b1-4)GlcNAc6S
Outline: as §1

Neu5Ac(a2-6)GalNAc = target: Neu5Ac(a2-6)GalNAc
Outline: as §1

[38] = target: Neu5Ac(a2-6)GalNAc(b1-4)GlcNAc
Outline: as §1

Neu5Ac(a2-8)Neu5Ac = target: Neu5Ac(a2-8)Neu5Ac
Outline: as §1

[39] = target: Neu5Ac(a2-8)Neu5Ac(a2-3)Gal(b1-4)Glc
Outline: as §1

[40] = target: Neu5Ac(a2-8)Neu5Ac(a2-3)[GalNAc(b1-4)]Gal(b1-4)Glc
Outline: as §1

[41] = target: Neu5Ac(a2-8)Neu5Ac(a2-8)Neu5Ac
Outline: as §1

[42] = target: Neu5Ac(a2-8)Neu5Ac(a2-8)Neu5Ac(a2-3)Gal(b1-4)Glc
Outline: as §1

[43] = target: Neu5Ac(a2-8)Neu5Ac(a2-8)Neu5Ac(a2-3)[GalNAc(b1-4)]Gal(b1-4)Glc
Outline: as §1

[44] = target: Neu5Ac(a2-8)Neu5Ac(a2-8)Neu5Ac(a2-8)Neu5Ac(a2-3)[GalNAc(b1-4)]Gal(b1-4)Glc
Outline: as §1

[45] = target: Neu5Ac9Ac(a2-6)Gal(b1-4)GlcNAc
Outline: as §1

[46] = target: Neu5Gc(a2-3)Gal(b1-3)GlcNAc
Outline: as §1

[47] = target: Neu5Gc(a2-3)Gal(b1-3)[Fuc(a1-4)]GlcNAc
Outline: as §1

Neu5Gc(a2-3)Gal(b1-4)Glc = target: Neu5Gc(a2-3)Gal(b1-4)Glc
Outline: as §1

[48] = target: Neu5Gc(a2-3)Gal(b1-4)GlcNAc
Outline: as §1

[49] = target: Neu5Gc(a2-3)Gal(b1-4)[Fuc(a1-4)]GlcNAc
Outline: as §1

[50] = target: Neu5Gc(a2-6)Gal(b1-4)GlcNAc
Outline: as §1

Neu5Gc(a2-6)GalNAc = target: Neu5Gc(a2-6)GalNAc
Outline: as §1

B1: FBG2 (Homo sapiens), Q9NRD1 (protein)
chain: MDAPHSKAALDSINELPENILLELFTHVPARQLLLNCRLVCSLWRDLIDLMTLWKRKCLREGFITKDWDQPVADWKIFYFLRSLHRNLLRNPCAEEDMFAWQIDFNGGDRWKVESLPGAHGTDFPDPKVKKYFVTSYEMCLKSQLVDLVAEGYWEELLDTFRPDIVVKDWFAARADCGCTYQLKVQLASADYFVLASFEPPPVTIQQWNNATWTEVSYTFSDYPRGVRYILFQHGGRDTQYWAGWYGPRVTNSSIVVSPKMTRNQASSEAQPGQKHGQEEAAQSPYRAVVQIFPPPVTIQQWNNATWTEVSYTFSDYPRGVRYILFQHGGRDTQYWAGWYGPRVTNSSIVVSPKMTRNQASSEAQPGQKHGQEEAAQSPYRAVVQI
- glycan array binding signal (z-score) [1]: 4.08
- glycan array binding signal (z-score) [2]: 3.91
- glycan array binding signal (z-score) (Man(b1-4)GlcNAc): -0.713
- glycan array binding signal (z-score) (Neu5Ac(a2-3)Gal): -0.674
- glycan array binding signal (z-score) [3]: -0.566
- glycan array binding signal (z-score) [4]: -0.559
- glycan array binding signal (z-score) [5]: -0.68
- glycan array binding signal (z-score) [6]: -0.328
- glycan array binding signal (z-score) [7]: -0.617
- glycan array binding signal (z-score) [8]: -0.304
- glycan array binding signal (z-score) [9]: -0.753
- glycan array binding signal (z-score) [10]: 0.495
- glycan array binding signal (z-score) [11]: -0.752
- glycan array binding signal (z-score) [12]: 0.115
- glycan array binding signal (z-score) [13]: -0.295
- glycan array binding signal (z-score) [14]: -0.275
- glycan array binding signal (z-score) (Neu5Ac(a2-3)Gal(b1-4)Glc): -0.668
- glycan array binding signal (z-score) [15]: -0.789
- glycan array binding signal (z-score) [16]: -0.687
- glycan array binding signal (z-score) [17]: -0.901
- glycan array binding signal (z-score) [18]: -0.717
- glycan array binding signal (z-score) [19]: -0.562
- glycan array binding signal (z-score) [20]: -0.612
- glycan array binding signal (z-score) [21]: 0.008
- glycan array binding signal (z-score) [22]: -0.597
- glycan array binding signal (z-score) [23]: -0.697
- glycan array binding signal (z-score) [24]: -0.464
- glycan array binding signal (z-score) [25]: -0.563
- glycan array binding signal (z-score) [26]: 0.245
- glycan array binding signal (z-score) [27]: 1.16
- glycan array binding signal (z-score) [28]: -0.589
- glycan array binding signal (z-score) (Neu5Ac(a2-3)GalNAc): -0.744
- glycan array binding signal (z-score) [29]: -0.657
- glycan array binding signal (z-score) [30]: -0.116
- glycan array binding signal (z-score) [31]: -0.719
- glycan array binding signal (z-score) [32]: -0.32
- glycan array binding signal (z-score) [33]: -0.736
- glycan array binding signal (z-score) [34]: 0.023
- glycan array binding signal (z-score) [35]: -0.877
- glycan array binding signal (z-score) [36]: -0.738
- glycan array binding signal (z-score) [37]: 0.481
- glycan array binding signal (z-score) (Neu5Ac(a2-6)GalNAc): -0.767
- glycan array binding signal (z-score) [38]: -0.582
- glycan array binding signal (z-score) (Neu5Ac(a2-8)Neu5Ac): -0.347
- glycan array binding signal (z-score) [39]: -0.28
- glycan array binding signal (z-score) [40]: -0.018
- glycan array binding signal (z-score) [41]: -0.196
- glycan array binding signal (z-score) [42]: -0.552
- glycan array binding signal (z-score) [43]: 0.005
- glycan array binding signal (z-score) [44]: -0.367
- glycan array binding signal (z-score) [45]: 0.535
- glycan array binding signal (z-score) [46]: -0.662
- glycan array binding signal (z-score) [47]: -0.831
- glycan array binding signal (z-score) (Neu5Gc(a2-3)Gal(b1-4)Glc): -0.742
- glycan array binding signal (z-score) [48]: -0.746
- glycan array binding signal (z-score) [49]: -0.731
- glycan array binding signal (z-score) [50]: -0.561
- glycan array binding signal (z-score) (Neu5Gc(a2-6)GalNAc): -0.848
